We go through 5 molecules from article PMC4206449.

Amino acid sequences for entries named in this document (tags omitted).
UniProt Q16637: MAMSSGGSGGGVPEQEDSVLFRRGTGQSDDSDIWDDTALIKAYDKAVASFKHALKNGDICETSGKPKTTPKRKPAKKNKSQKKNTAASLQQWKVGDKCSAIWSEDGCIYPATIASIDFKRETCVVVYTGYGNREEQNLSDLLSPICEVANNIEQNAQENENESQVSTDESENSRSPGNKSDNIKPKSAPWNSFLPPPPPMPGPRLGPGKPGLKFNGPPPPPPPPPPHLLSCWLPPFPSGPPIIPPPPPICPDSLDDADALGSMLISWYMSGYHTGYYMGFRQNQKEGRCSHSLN

No constants are given. Whether binding was seen depends on the method and setting. For some of these results: In cells and extracts the contact can be indirect. Some entries that bind do so weakly or less than the wild type. For some of these results: Tags and fused reporters may be left off the sequences shown.

In experiment [1] the target is recombinant His-tagged SMN full length protein (murine), P97801. As to the kind of experiment: co-IP; 250 or 500 ng rhnRNP R and 250 ng rSMN with GammaBind Plus Sepharose beads and 1 ug antibody against hnRNP R or SMN (or control IgG), 1 h at RT; 50 mM sodium phosphate pH 8.0, 5% glycerol, 50 mM NaCl, 0.1% Tween; Western blot; both purified. To be noted: remark: other sources report otherwise.

Experiment [2] has as its target T1, Smn (endogenous, mouse) (mouse (endogenous in primary motoneurons and E18 spinal cord)), P97801. Description: co-IP; cytosolic fraction of primary mouse motoneurons cultured 7DIV on laminin-111; IP with anti-hnRNP R (Abcam ab30930) or anti-Smn (BD 610646), 6 h at 4°C, protein G or A agarose; Western blot. To be noted: remark: other sources report otherwise.
Experiment [3] deals with T1, Smn (endogenous, mouse) (mouse …). As to the kind of experiment: co-IP; cytosolic fraction of E18 mouse spinal cord; IP with anti-hnRNP R (Abcam ab30930) or anti-Smn (BD 610646), 6 h at 4°C, protein G or A agarose; Western blot. The note with it: remark: other sources report otherwise. A general note: In western blotting, separated proteins are transferred to a membrane and probed.

Experiment [4] has as its target Smn (endogenous, HEK293T cells) (human (endogenous in HEK293T)) (UniProt Q16637). Description: co-IP; cytosolic and soluble nuclear fractions of HEK293T cells; IP of Smn or hnRNP R, Western blot.
Experiment [5] deals with T2, recombinant His-tagged hnRNP R full length protein (murine), Q8VHM5.
T2 chain: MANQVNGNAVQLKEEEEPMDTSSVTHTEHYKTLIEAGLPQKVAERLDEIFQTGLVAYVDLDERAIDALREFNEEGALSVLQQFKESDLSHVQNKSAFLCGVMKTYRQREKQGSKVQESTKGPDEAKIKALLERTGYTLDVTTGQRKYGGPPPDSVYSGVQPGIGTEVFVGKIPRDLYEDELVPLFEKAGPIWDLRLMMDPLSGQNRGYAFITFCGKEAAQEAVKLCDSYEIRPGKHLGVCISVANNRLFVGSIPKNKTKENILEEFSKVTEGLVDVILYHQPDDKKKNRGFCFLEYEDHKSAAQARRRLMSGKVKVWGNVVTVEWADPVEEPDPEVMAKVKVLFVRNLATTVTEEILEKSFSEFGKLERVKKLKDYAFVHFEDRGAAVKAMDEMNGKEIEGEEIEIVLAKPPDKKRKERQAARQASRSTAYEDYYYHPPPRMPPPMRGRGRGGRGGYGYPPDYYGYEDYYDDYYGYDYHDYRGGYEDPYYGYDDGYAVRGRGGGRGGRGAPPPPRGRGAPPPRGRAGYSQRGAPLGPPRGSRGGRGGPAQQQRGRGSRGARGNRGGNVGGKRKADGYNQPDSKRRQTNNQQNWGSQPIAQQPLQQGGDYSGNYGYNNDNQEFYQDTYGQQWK
As to the kind of experiment: co-IP; 250 or 500 ng rhnRNP R and 250 ng rSMN with GammaBind Plus Sepharose beads and 1 ug antibody against hnRNP R or SMN (or control IgG), 1 h at RT; 50 mM sodium phosphate pH 8.0, 5% glycerol, 50 mM NaCl, 0.1% Tween; Western blot; both purified. To be noted: remark: other sources report otherwise.

The target in experiment [6] is T3, hnRNP R (endogenous, mouse) (mouse (endogenous in primary motoneurons and E18 spinal cord)), Q8VHM5.
T3 chain: T2 chain
Description: co-IP; cytosolic fraction of primary mouse motoneurons cultured 7DIV on laminin-111; IP with anti-hnRNP R (Abcam ab30930) or anti-Smn (BD 610646), 6 h at 4°C, protein G or A agarose; Western blot. To be noted: remark: other sources report otherwise.

The target in experiment [7] is T3, hnRNP R (endogenous, mouse) (mouse …). As to the kind of experiment: co-IP; cytosolic fraction of E18 mouse spinal cord; IP with anti-hnRNP R (Abcam ab30930) or anti-Smn (BD 610646), 6 h at 4°C, protein G or A agarose; Western blot. To be noted: remark: other sources report otherwise.

B1: recombinant His-tagged hnRNP R full length protein, Q8VHM5 1-632 (protein)
chain: T2 chain
On to B1, for which the binding entry in experiment [1] is “binds”.

B2: hnRNP R (endogenous, mouse), Q8VHM5 1-632 (protein)
chain: T2 chain
On to B2, for which the binding result in experiment [2] and in experiment [3] was “binds” each time.

B3: hnRNP R (endogenous, HEK293T cells) (protein, UniProt O43390 1-633)
chain: MANQVNGNAVQLKEEEEPMDTSSVTHTEHYKTLIEAGLPQKVAERLDEIFQTGLVAYVDLDERAIDALREFNEEGALSVLQQFKESDLSHVQNKSAFLCGVMKTYRQREKQGSKVQESTKGPDEAKIKALLERTGYTLDVTTGQRKYGGPPPDSVYSGVQPGIGTEVFVGKIPRDLYEDELVPLFEKAGPIWDLRLMMDPLSGQNRGYAFITFCGKEAAQEAVKLCDSYEIRPGKHLGVCISVANNRLFVGSIPKNKTKENILEEFSKVTEGLVDVILYHQPDDKKKNRGFCFLEYEDHKSAAQARRRLMSGKVKVWGNVVTVEWADPVEEPDPEVMAKVKVLFVRNLATTVTEEILEKSFSEFGKLERVKKLKDYAFVHFEDRGAAVKAMDEMNGKEIEGEEIEIVLAKPPDKKRKERQAARQASRSTAYEDYYYHPPPRMPPPIRGRGRGGGRGGYGYPPDYYGYEDYYDDYYGYDYHDYRGGYEDPYYGYDDGYAVRGRGGGRGGRGAPPPPRGRGAPPPRGRAGYSQRGAPLGPPRGSRGGRGGPAQQQRGRGSRGSRGNRGGNVGGKRKADGYNQPDSKRRQTNNQQNWGSQPIAQQPLQQGGDYSGNYGYNNDNQEFYQDTYGQQWK
As for B3, the binding result in experiment [4] is recorded as “no binding”.

B4: recombinant His-tagged SMN full length protein, P97801 1-288 (protein)
chain: MAMGSGGAGSEQEDTVLFRRGTGQSDDSDIWDDTALIKAYDKAVASFKHALKNGDICETPDKPKGTARRKPAKKNKSQKKNATTPLKQWKVGDKCSAVWSEDGCIYPATITSIDFKRETCVVVYTGYGNREEQNLSDLLSPTCEVANSTEQNTQENESQVSTDDSEHSSRSLRSKAHSKSKAAPWTSFLPPPPPMPGSGLGPGKPGLKFNGPPPPPPLPPPPFLPCWMPPFPSGPPIIPPPPPISPDCLDDTDALGSMLISWYMSGYHTGYYMGFRQNKKEGKCSHTN
Regarding B4, the binding entry in experiment [5] is recorded as “binds”.

B5: Smn (endogenous, mouse), P97801 1-288 (protein)
chain: B4 chain
Take B5: the binding result in experiment [6] and in experiment [7] was “binds” in each case.
